The values below come from PubChem BioAssay AID330 (DTP/NCI, 2004).

The list does not hold the whole screen: it gathers tests that were run many times, whatever their T/C, doses with no T/C, and many T/C values between a quarter and a half above the control. Further doses and runs are listed elsewhere. T/C: endpoint of the treated group in % of that of the vehicle group. Some doses have a count of surviving animals in place of a T/C: the source holds a T/C of zero for them, seemingly a mark for toxic or unscored doses. Some survivor counts are full or nearly so, which does not show that the dose was tolerated: the source hardly ever lists a survival T/C far under the control, and the zero likely stands for such cases as well. Survivors were counted at the toxicity check, usually on the fifth day, unless a day is given; later deaths do not show. Schedules are NCI's codes, taken here to give the interval after Q, in days (D) or hours (H), and the number of doses after X. Some entries were tested several times; their values stand side by side, smallest first. Where survival is the endpoint, this PubChem deposit counts one and a half times the control or more as active, and values a quarter to a half above the control carry no call in these data; other NCI protocols may use other cut-offs.

The test has as its system P388 leukemia ip, CD2F1 mice, survival T/C. The experiment in a line: NCI In Vivo Anticancer Drug Screen. Data for tumor model P388 Leukemia (intraperitoneal) in CD2F1 (CDF1) mice. The following applies: T/C endpoint: median survival time, higher T/C = longer survival.
The mark [1] stands for this setting: dose: 240.0 mg/kg/injection, schedule: Q01DX005 (ip), vehicle: saline.
Setting [2] is: dose: 100.0 mg/kg/injection, schedule: Q01DX009 (ip), vehicle: saline.
Where [3] appears, read: dose: 200.0 mg/kg/injection, schedule: Q01DX009 (ip), vehicle: saline.

Turning to `CCC1([N+](=O)[O-])CN(C)CC2CCCCN2C1` (stereo not drawn), the survivor count is, setting by setting: (dose: 200.0 mg/kg/injection, schedule: Q04DX002 (ip), vehicle: saline) 2 of 6; (dose: 400.0 mg/kg/injection, schedule: Q04DX002 (ip), vehicle: saline) 0 of 6.
For `O=C1OC(C(O)CO)C(O)=C1O` (stereo not drawn), the survivor count reads like this: (dose: 100.0 mg/kg/injection, schedule: Q01DX009 (oral), vehicle: saline) 5 of 6; under setting [1], 5 of 6; (dose: 800.0 mg/kg/injection, schedule: Q01DX005 (iv), vehicle: saline) 2 of 6; (dose: 1600.0 mg/kg/injection, schedule: Q01DX005 (iv), vehicle: saline) 3 of 6.
Consider `CC1OCN2C(C)CCCC12` (stereo not drawn), for which the survivor count (dose: 200.0 mg/kg/injection, schedule: Q01DX005 (ip), vehicle: saline) is given as 1 of 6.
Regarding `C/C(=N/NC(N)=O)c1cccc(/C(C)=N/NC(N)=O)n1.[Cl][Cu][Cl]`, the survivor count was 0 of 6 (dose: 50.0 mg/kg/injection, schedule: Q01DX009 (ip), vehicle: saline); 0 of 6 under setting [2]; 0 of 6 under setting [3].
Regarding `O=C1C(CO)=CC(O)[C@@H]2O[C@H]12` (mixture of isomers), the T/C is, setting by setting: (dose: 12.0 mg/kg/injection, schedule: Q01DX005 (ip), vehicle: saline with Tween-80) 140 % of control; (dose: 24.0 mg/kg/injection, schedule: Q01DX005 (ip), vehicle: saline with Tween-80) 140 % of control; (dose: 48.0 mg/kg/injection, schedule: Q01DX005 (ip), vehicle: saline with Tween-80) 129 and 135 % of control. For the same compound, the survivor count by setting is: (dose: 96.0 mg/kg/injection, schedule: Q01DX005 (ip), vehicle: saline with Tween-80) 0 of 5 and 0 of 6; (dose: 192.0 mg/kg/injection, schedule: Q01DX005 (ip), vehicle: saline with Tween-80) 0 of 6; (dose: 384.0 mg/kg/injection, schedule: Q01DX005 (ip), vehicle: saline with Tween-80) 0 of 6.
In the case of `CC1(COCCOCC2(C)CO2)CO1` (stereo not drawn), the T/C reads like this: under setting [3], 131 % of control; (dose: 264.0 mg/kg/injection, schedule: Q01DX009 (ip), vehicle: saline sonified) 145 % of control.
Take `COc1ccc([I+]c2ccccc2)cc1`: the survivor count (dose: 5.0 mg/kg/injection, schedule: Q01DX009 (ip), vehicle: saline sonified) was 6 of 6 and the survivor count (dose: 10.0 mg/kg/injection, schedule: Q01DX009 (ip), vehicle: saline sonified) is listed as 5 of 6.
With `CN(C(=[Se])[Se]C(=[Se])N(C)C1CCCCC1)C1CCCCC1`, the survivor count (dose: 240.0 mg/kg/injection, schedule: Q01DX005 (ip), vehicle: Klucel (hydroxypropylcellulose) (HPC)) is reported as 0 of 6.
With `Cc1ncc(Cl)c2cc3ccccc3cc12`, the survivor count under setting [2] is 6 of 6.
For the compound `CC12CCC3C(CCC4CC(OC(=O)Cc5ccc(N(CCCl)CCCl)cc5)CCC43C)C1CCC(=O)N2` (stereo not drawn), the T/C (dose: 3.0 mg/kg/injection, schedule: Q01DX009 (ip), vehicle: saline with Tween-80) was 130 and 134 % of control.
In the case of `CC1CN(C2CCCCC2)CO1` (stereo not drawn), where the note is “dose: 100.0 mg/kg/injection, schedule: Q01DX005 (ip), vehicle: saline”, the survivor count is listed as 1 of 6.
With `CCCCOP(=O)(N1CC1(C)C)N1CC1(C)C` (stereo not drawn), the T/C was 144 % of control (dose: 8.0 mg/kg/injection, schedule: Q01DX009 (ip), vehicle: saline); 130 % of control (dose: 16.0 mg/kg/injection, schedule: Q01DX009 (ip), vehicle: saline); 126 % of control (dose: 20.0 mg/kg/injection, schedule: Q01DX001 (ip), vehicle: saline); 135 % of control (dose: 40.0 mg/kg/injection, schedule: Q01DX001 (ip), vehicle: saline); 128 % of control (dose: 80.0 mg/kg/injection, schedule: Q01DX001 (ip), vehicle: saline).
Turning to `CN(C)c1cc[n+](C=O)cc1`, the survivor count is recorded as 0 of 6 (dose: 60.0 mg/kg/injection, schedule: Q01DX005 (ip), vehicle: saline); 0 of 6 (dose: 120.0 mg/kg/injection, schedule: Q01DX005 (ip), vehicle: saline); 0 of 6 under setting [1].
As to `Cc1ccc(NC(=S)NCCc2ccccn2)cc1C`, under “dose: 50.0 mg/kg/injection, schedule: Q01DX009 (ip), vehicle: saline with Tween-80”, the T/C was 134 % of control.
